Reference: patent publication US8722123B2, “Antimicrobial composition and use as food treatment” (priority 2008, dated 2014)
Some entries share one result that the patent states for a list of compounds.

Test system: S. enteritidis
Format: cell-based, Salmonella enteritidis

`CCCCCCCCCCCCOS(=O)(=O)[O-].[Na+]` [0.05% sodium dodecyl sulfate (pH 4.4), sodium dodecyl sulfate] was tested, and the Salmonella inactivated was no more than 2 log CFU/ml.
